Assay results from article PMC8157759.
Results are given in words; binding and its absence hold for the method and conditions named. In cells and extracts the contact can be indirect. Some binding calls cover weakened binding; strength is not graded here.

T1: Eyes absent homolog 2 (human (endogenous in MHCC-97H and Huh-7)) (UniProt O00167)
T1 sequence: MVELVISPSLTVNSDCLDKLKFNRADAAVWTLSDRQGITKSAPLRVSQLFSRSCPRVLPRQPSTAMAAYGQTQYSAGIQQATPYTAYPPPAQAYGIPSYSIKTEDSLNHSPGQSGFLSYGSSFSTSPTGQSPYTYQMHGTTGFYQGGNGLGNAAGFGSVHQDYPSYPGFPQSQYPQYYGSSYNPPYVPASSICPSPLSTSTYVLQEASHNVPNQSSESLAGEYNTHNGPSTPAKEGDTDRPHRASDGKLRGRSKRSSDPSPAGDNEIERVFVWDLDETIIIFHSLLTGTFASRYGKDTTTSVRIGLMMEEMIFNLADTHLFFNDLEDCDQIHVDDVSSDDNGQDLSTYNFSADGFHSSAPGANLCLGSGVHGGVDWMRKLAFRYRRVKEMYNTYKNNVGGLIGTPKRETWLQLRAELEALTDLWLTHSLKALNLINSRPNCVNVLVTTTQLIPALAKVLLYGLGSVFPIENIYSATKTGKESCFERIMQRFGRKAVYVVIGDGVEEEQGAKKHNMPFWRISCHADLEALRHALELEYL

T2: DACH1 (human (endogenous in MHCC-97H and Huh-7)) (UniProt Q9UI36)
T2 sequence: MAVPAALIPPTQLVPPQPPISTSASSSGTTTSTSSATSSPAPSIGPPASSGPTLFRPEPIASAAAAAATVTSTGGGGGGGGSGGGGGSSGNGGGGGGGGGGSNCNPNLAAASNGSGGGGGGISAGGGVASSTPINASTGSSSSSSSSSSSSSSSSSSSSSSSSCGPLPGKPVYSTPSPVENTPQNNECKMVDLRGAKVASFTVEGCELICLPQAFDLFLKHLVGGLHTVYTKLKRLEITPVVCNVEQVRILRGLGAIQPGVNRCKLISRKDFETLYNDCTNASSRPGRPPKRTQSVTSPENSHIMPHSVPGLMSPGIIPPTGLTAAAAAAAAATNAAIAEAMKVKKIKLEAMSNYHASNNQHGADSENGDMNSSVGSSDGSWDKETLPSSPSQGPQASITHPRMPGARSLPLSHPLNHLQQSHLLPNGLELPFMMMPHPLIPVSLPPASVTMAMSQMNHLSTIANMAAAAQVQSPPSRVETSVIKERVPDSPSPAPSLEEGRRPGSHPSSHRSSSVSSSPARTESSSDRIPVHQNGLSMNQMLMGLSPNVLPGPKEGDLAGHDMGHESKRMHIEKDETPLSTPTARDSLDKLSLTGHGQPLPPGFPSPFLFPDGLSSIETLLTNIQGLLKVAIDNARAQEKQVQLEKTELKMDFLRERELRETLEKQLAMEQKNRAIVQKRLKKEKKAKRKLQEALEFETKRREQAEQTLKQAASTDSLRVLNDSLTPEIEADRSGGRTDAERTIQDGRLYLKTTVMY


Columns and labels:
[1] = target: T1, Eyes absent homolog 2 (human (endogenous in MHCC-97H and Huh-7)); experiment: co-IP; endogenous proteins in MHCC-97H and Huh-7 cells; precipitated with anti-EYA2 antibody (DACH1 detected) and with anti-DACH1 antibody (EYA2 detected)
[2] = target: T2, DACH1 (human (endogenous in MHCC-97H and Huh-7)); experiment: as above

binding [1] | binding [2] | Binder
binds |  | DACH1 (protein, UniProt Q9UI36 1-758) MAVPAALIPPTQLVPPQPPISTSASSSGTTTSTSSATSSPAPSIGPPASSGPTLFRPEPIASAAAAAATVTSTGGGGGGGGSGGGGGSSGNGGGGGGGGGGSNCNPNLAAASNGSGGGGGGISAGGGVASSTPINASTGSSSSSSSSSSSSSSSSSSSSSSSSCGPLPGKPVYSTPSPVENTPQNNECKMVDLRGAKVASFTVEGCELICLPQAFDLFLKHLVGGLHTVYTKLKRLEITPVVCNVEQVRILRGLGAIQPGVNRCKLISRKDFETLYNDCTNASSRPGRPPKRTQSVTSPENSHIMPHSVPGLMSPGIIPPTGLTAAAAAAAAATNAAIAEAMKVKKIKLEAMSNYHASNNQHGADSENGDMNSSVGSSDGSWDKETLPSSPSQGPQASITHPRMPGARSLPLSHPLNHLQQSHLLPNGLELPFMMMPHPLIPVSLPPASVTMAMSQMNHLSTIANMAAAAQVQSPPSRVETSVIKERVPDSPSPAPSLEEGRRPGSHPSSHRSSSVSSSPARTESSSDRIPVHQNGLSMNQMLMGLSPNVLPGPKEGDLAGHDMGHESKRMHIEKDETPLSTPTARDSLDKLSLTGHGQPLPPGFPSPFLFPDGLSSIETLLTNIQGLLKVAIDNARAQEKQVQLEKTELKMDFLRERELRETLEKQLAMEQKNRAIVQKRLKKEKKAKRKLQEALEFETKRREQAEQTLKQAASTDSLRVLNDSLTPEIEADRSGGRTDAERTIQDGRLYLKTTVMY
 | binds | Eyes absent homolog 2 (protein, UniProt O00167 1-538) MVELVISPSLTVNSDCLDKLKFNRADAAVWTLSDRQGITKSAPLRVSQLFSRSCPRVLPRQPSTAMAAYGQTQYSAGIQQATPYTAYPPPAQAYGIPSYSIKTEDSLNHSPGQSGFLSYGSSFSTSPTGQSPYTYQMHGTTGFYQGGNGLGNAAGFGSVHQDYPSYPGFPQSQYPQYYGSSYNPPYVPASSICPSPLSTSTYVLQEASHNVPNQSSESLAGEYNTHNGPSTPAKEGDTDRPHRASDGKLRGRSKRSSDPSPAGDNEIERVFVWDLDETIIIFHSLLTGTFASRYGKDTTTSVRIGLMMEEMIFNLADTHLFFNDLEDCDQIHVDDVSSDDNGQDLSTYNFSADGFHSSAPGANLCLGSGVHGGVDWMRKLAFRYRRVKEMYNTYKNNVGGLIGTPKRETWLQLRAELEALTDLWLTHSLKALNLINSRPNCVNVLVTTTQLIPALAKVLLYGLGSVFPIENIYSATKTGKESCFERIMQRFGRKAVYVVIGDGVEEEQGAKKHNMPFWRISCHADLEALRHALELEYL
